# Assay results published in PubChem BioAssay AID1471 (National Center for Advancing Translational Sciences (NCATS), 2008).
# Hit rate of the full screen: of about 230,000 compounds, about 310 (0.13%) were called active. Inconclusive means that the source gave no clear call. Such entries were picked first, then a sample of the others. The call rests on the fitted dose curve; in most records, active means well fitted activation curve with a large enough effect; inconclusive means small, poorly fitted or top-dose-only effect; inactive means no such curve, though single readings can be large or run the other way. Potencies of inconclusive entries are doubtful fits and often do not repeat.
# Test: qHTS Multiplex Assay to Identify Dual Action Probes in a Cell Model of Huntington: Cytoprotection (ATP); further: nearly all actives have a fitted effect of over 45% in size;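 on cytoprotection (ATP increase): toxic huntingtin expression switched on by the ecdysone agonist tebufenozide; % of control where 0% means no effect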
# Conditions: PC12 HTT-Q103 induced, ATP luminescence, 40 h; cytoprotection (ATP increase): at 56.4 µM (top of the series) unless noted
# Outline: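 Cells were plated at 1500 per well in phenol red-free DMEM with 5% equine and 5% calf serum. Tebufenozide (100 nM final) and compounds were added, then ATPlite reagent, and luminescence was read.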
# Potency means the concentration at half of the fitted maximal effect.
Structure (SMILES),Potency,cytoprotection (ATP increase)
Cc1ccccc1-c1cc(-c2ccccc2O)on1,inactive,
C(=N\NC1=Nc2cccc3cccc1c23)/c1ccccn1,,inactive: -71.3% [at 10 µM]
Cc1cc(C)nc(/N=C2\NC(=O)CC(C(=O)O)N2c2ccc(F)c(Cl)c2)n1 (stereo unspecified),"inconclusive: 0.562 µM [activator, partial curve]",
CCOC(=O)C1=C(C(F)(F)F)Nc2ncnn2C1c1ccc(OC)c(OC)c1OC (stereo unspecified),"inconclusive: 1.12 µM [activator, partial curve, poor fit]",
O=C(CN1CCCCC1)Nc1ccccc1-c1ccccc1,inactive,
CNC(=S)N/N=C/c1cc(Br)cc(Br)c1O,"inconclusive: 2.51 µM [activator, partial curve]",
Cc1ccc(NC(=S)Nc2ccc(Cl)c(Cl)c2)c(OC(F)F)c1,"inconclusive: 5.01 µM [activator, single point]",
O=C(NC1=NCCS1)c1ccccc1OCc1ccc(F)cc1,inactive,
CN(C)/C=C(\C#N)C(=O)c1cccc(Oc2ccc(Br)cc2)c1,inactive,
O=C(NC1CC2CCCC(C1)N2C(=O)Nc1ccccc1)c1ccncc1 (stereo unspecified),"inconclusive: 0.631 µM [activator, single point]",
O=C(NC1CC1)c1ccc(C2SCC(=O)N2Cc2ccccc2)cc1 (stereo unspecified),"inconclusive: 1.26 µM [activator, single point]",
N[C@@H](CO)c1cn([C@@H](Cc2cc3ccccc3[nH]2)C(=O)N2CCNCC2)nn1,"inconclusive: 3.16 µM [activator, single point]",
CC1(C)C2CC=C(/C=N/NC(=O)c3ccccc3Br)C1C2 (stereo unspecified),,inactive: -4.51% [at 10 µM]
COc1ccc(NC(=S)Nc2cccc(C(F)(F)F)c2)c(C)c1,"inconclusive: 0.0079 µM [activator, full curve, poor fit]",
CCOC(=O)c1c(NC(=O)CC2SC(N)=NC2=O)sc2c1CCC(C)C2 (stereo unspecified),,inactive: 28.7% [at 10 µM]
CCOc1ccccc1NC(=O)NC(=O)N(C)S(C)(=O)=O,inactive,
O=C(Nc1cccc(S(=O)(=O)N2CCCCC2)c1)c1ccc([N+](=O)[O-])o1,"inconclusive: 31.6 µM [activator, single point]",
Cn1cc[nH]c1=S,"inconclusive: 11.2 µM [activator, single point]",
CCCc1nc2c(sc3nc4c(cc32)COC(C)(C)C4)c(=O)n1CCN(CC)CC,"inconclusive: 5.62 µM [activator, single point]",
O=C(O)c1ccc(C(=O)c2ccccc2)c(C(=O)O)c1,,inactive: -9.39% [at 10 µM]
Cc1cc2cccc(C)c2nc1SCC(=O)NCC1CCCO1 (stereo unspecified),"inconclusive: 5.62 µM [activator, single point]",
Cc1ccc(-c2nc(N/N=C/c3cccc([N+](=O)[O-])c3)c3ccccc3n2)cc1,"inconclusive: 3.16 µM [activator, partial curve]",

# 5 of these compounds, set out differently.
Structure (SMILES) | Potency | cytoprotection (ATP increase)
C(=N\NC1=Nc2cccc3cccc1c23)/c1ccccn1 |  | inactive: -71.3% [at 10 µM]
O=C(CN1CCCCC1)Nc1ccccc1-c1ccccc1 | inactive | 
O=C(NC1CC2CCCC(C1)N2C(=O)Nc1ccccc1)c1ccncc1 (stereo unspecified) | inconclusive: 0.631 µM [activator, single point] | 
N[C@@H](CO)c1cn([C@@H](Cc2cc3ccccc3[nH]2)C(=O)N2CCNCC2)nn1 | inconclusive: 3.16 µM [activator, single point] | 
Cn1cc[nH]c1=S | inconclusive: 11.2 µM [activator, single point] | 

# Continuation.

Structure (SMILES),Potency,cytoprotection (ATP increase)
O=C(COc1ccc([N+](=O)[O-])cc1)N(Cc1ccccc1)Cc1ccccc1,,inactive: -15% [at 10 µM]
O=C1COc2ccc(C(=O)COC(=O)Cc3ccsc3)cc2N1,"inconclusive: 2.24 µM [activator, partial curve, poor fit]",
COCCn1nnnc1CN1CCC(C)CC1,"inconclusive: 1.26 µM [activator, single point]",
O=C(NCCc1cn2ccccc2n1)c1cc(COc2c(F)cccc2F)on1,"inconclusive: 5.62 µM [activator, single point]",
COc1ccc(NC(=O)N2CCC3(CC2)CCN(C(=O)c2cc(C(F)(F)F)cc(C(F)(F)F)c2)CC3)cc1,,inconclusive: 35.8% [activator]
CCn1ncc(C2=NOC(C(=O)NCc3ccc(Cl)cc3)C2)c1C (stereo unspecified),inactive,
C[n+]1ccccc1C1CCCC/C1=N\Nc1ccc([N+](=O)[O-])cc1[N+](=O)[O-] (stereo unspecified),"inconclusive: 5.62 µM [activator, single point]",
CCCN1C(=O)/C(=C2\SC(=S)N(c3c(C)n(C)n(-c4ccccc4)c3=O)C2=O)c2ccccc21,,inactive: -12.9% [at 10 µM]
c1csc(CNc2ncncc2-c2ccoc2)c1,"inconclusive: 7.94 µM [activator, partial curve]",
NC(=O)c1ccc[n+]([C@@H]2OC(COP(=O)([O-])OP(=O)(O)OCC3OC(n4cnc5c(N)ncnc54)C(O)C3O)C(O)C2O)c1 (stereo partly specified),"inconclusive: 0.0056 µM [activator, partial curve, poor fit]",
O=C(COC(=O)CNC(=O)c1ccccc1)Nc1ccccc1Cl,,inactive: -9.01% [at 10 µM]
CC1=C(C(=O)Nc2ccccn2)C(c2ccc(Cl)cc2Cl)NC(=S)N1 (stereo unspecified),"inconclusive: 17.8 µM [activator, single point]",
COc1ccc(-c2ccc(OC)c([C@H]3[C@H]4C=CC[C@@H](C)[C@@H]4C(=O)N3Cc3ccccc3)c2)cc1OC,"inconclusive: 0.112 µM [activator, partial curve, poor fit]",
CCNc1ncc2nc(-c3cn(C)c4ccccc34)c(=O)n(CCC#N)c2n1,"inconclusive: 25.1 µM [activator, partial curve, poor fit]",
COc1ccc(-n2c(C)nc3c(cnn3-c3ccc(Cl)cc3)c2=O)cc1,inactive,
Cc1ccc(C(=O)OCC(=O)NC2CCCCC2)s1,"inconclusive: 0.708 µM [activator, single point]",
O=C(Nc1cc(C(F)(F)F)ccc1N1CCCCC1)c1cccc([N+](=O)[O-])c1,inactive,
Oc1cc2c(cc1O)C(c1ccccc1)CNCC2 (stereo unspecified),"inconclusive: 1.26 µM [activator, single point]",
CCOC(=O)C1=C(c2ccccc2)ON(C)C1c1ccccc1 (stereo unspecified),"inconclusive: 0.0891 µM [activator, partial curve, poor fit]",
COc1cc2c(cc1NC(=O)C(C)N1CCN(S(=O)(=O)c3ccccc3[N+](=O)[O-])CC1)oc1ccccc12 (stereo unspecified),inactive,
O=C(COC(=O)CCCOc1ccc(Cl)cc1Cl)Nc1cccc(Cl)c1,"inconclusive: 1.12 µM [activator, single point]",
COC(=O)c1sc(N)c(C(=O)OC)c1CSc1nnnn1C,"inconclusive: 0.562 µM [activator, single point]",

Structure (SMILES),Potency,cytoprotection (ATP increase)
COC(=O)N/N=C/c1cc(Br)ccc1O,"inconclusive: 3.16 µM [activator, single point]",
Cc1cc(C)c(S(=O)(=O)NCCn2ccc3ccccc32)c(C)c1,"inconclusive: 5.62 µM [activator, single point]",
Cn1c(=O)c2c(ncn2CC2OCCO2)n(C)c1=O,"inconclusive: 15.8 µM [activator, single point]",
COc1ccc(/C=N/NC(=S)Nc2ccccc2)cc1,"inconclusive: 3.16 µM [activator, single point]",
COC(=O)[C@H](COC(C)(C)C)NC(=O)O[C@@H]1C(=O)c2ccc(OC)cc2O[C@H]1c1cccc(C(F)(F)F)c1,"inconclusive: 2.51 µM [activator, single point]",
COC(=O)[C@@]1(Cc2ccc(F)cc2)[C@H]2c3cc(C(=O)N4CCCC4)n(CCc4ccc(OC)c(Br)c4)c3C[C@H]2CN1C(=O)c1ccccc1,"inconclusive: 25.1 µM [activator, partial curve]",
O=C(OCCCCN1C(=O)c2ccccc2C1=O)c1ccc(Br)o1,,inactive: 16.6% [at 10 µM]
C=C[C@@]1(C)C=C2CC[C@@H]3[C@](C)(CCC[C@@]3(C)C(=O)O)[C@H]2CC1,"inconclusive: 39.8 µM [activator, single point]",
O=C(O)C1CCN(C(=O)COc2ccc3c4c(c(=O)oc3c2)CCC4)CC1,inactive,
COc1ccc(NC(=O)N2CC3(CCN(C(=O)c4cccc(F)c4)CC3)C2)cc1,"inconclusive: 3.55 µM [activator, single point]",
Cc1ccc(C(=O)NNC(=O)c2ccc(C)cc2)cc1,inactive,
CC(O)CNc1ccc(-c2nn(C)c(=O)c3ccccc23)cc1[N+](=O)[O-] (stereo unspecified),inactive,
CCCOc1cccc(C(=O)NC(=S)Nc2cccc(C(F)(F)F)c2)c1,inactive,
O=C(CCNS(=O)(=O)c1cccc2nsnc12)NCc1ccc(F)cc1,"inconclusive: 1.12 µM [activator, single point]",
COc1ccccc1-c1nnc(SC(C(=O)c2c[nH]c3ccccc23)c2ccccc2)n1C (stereo unspecified),active: 4.47 µM,
CCCC(=O)n1nc(-c2ccco2)nc1SCc1ccccc1,,inactive: -18.9% [at 10 µM]
CCN1C(=O)[C@H]2[C@H]3[C@H](O)[C@H](O)C/C(=N/O[C@@H]4O[C@H](COC(C)=O)[C@@H](OC(C)=O)[C@H](OC(C)=O)[C@H]4OC(C)=O)[C@@H]3CC[C@@H]2C1=O,"inconclusive: 5.62 µM [activator, single point]",
COc1ccc2c(CC(=O)NCCN3C(=O)S/C(=C\c4cccnc4)C3=O)coc2c1,inactive,
O=P(O)(O)OC[C@H]1O[C@](O)(COP(=O)(O)O)[C@@H](O)[C@@H]1O,"inconclusive: 1.41 µM [activator, partial curve]",
CC(C)c1cc(-c2cc(C(=O)NCc3ccccc3)on2)nc(NCC2CC2)n1,"inconclusive: 0.631 µM [activator, partial curve]",
O=C(Nc1nccs1)c1ccc(S(=O)(=O)N2CCOCC2)cc1,,inactive: 16% [at 10 µM]
N#C/C(C(N)=O)=C1/CCc2ccccc2N1,"inconclusive: 35.5 µM [activator, single point]",
